Laboratory results: the supplement of paper PMC10849652
This is one part of the list.

Protein sequences, listed by entry. Tags and fused reporters are not part of them. Lines headed by an entry give the natural chain unless they say otherwise; changes in a name come on top.
UniProt P53804: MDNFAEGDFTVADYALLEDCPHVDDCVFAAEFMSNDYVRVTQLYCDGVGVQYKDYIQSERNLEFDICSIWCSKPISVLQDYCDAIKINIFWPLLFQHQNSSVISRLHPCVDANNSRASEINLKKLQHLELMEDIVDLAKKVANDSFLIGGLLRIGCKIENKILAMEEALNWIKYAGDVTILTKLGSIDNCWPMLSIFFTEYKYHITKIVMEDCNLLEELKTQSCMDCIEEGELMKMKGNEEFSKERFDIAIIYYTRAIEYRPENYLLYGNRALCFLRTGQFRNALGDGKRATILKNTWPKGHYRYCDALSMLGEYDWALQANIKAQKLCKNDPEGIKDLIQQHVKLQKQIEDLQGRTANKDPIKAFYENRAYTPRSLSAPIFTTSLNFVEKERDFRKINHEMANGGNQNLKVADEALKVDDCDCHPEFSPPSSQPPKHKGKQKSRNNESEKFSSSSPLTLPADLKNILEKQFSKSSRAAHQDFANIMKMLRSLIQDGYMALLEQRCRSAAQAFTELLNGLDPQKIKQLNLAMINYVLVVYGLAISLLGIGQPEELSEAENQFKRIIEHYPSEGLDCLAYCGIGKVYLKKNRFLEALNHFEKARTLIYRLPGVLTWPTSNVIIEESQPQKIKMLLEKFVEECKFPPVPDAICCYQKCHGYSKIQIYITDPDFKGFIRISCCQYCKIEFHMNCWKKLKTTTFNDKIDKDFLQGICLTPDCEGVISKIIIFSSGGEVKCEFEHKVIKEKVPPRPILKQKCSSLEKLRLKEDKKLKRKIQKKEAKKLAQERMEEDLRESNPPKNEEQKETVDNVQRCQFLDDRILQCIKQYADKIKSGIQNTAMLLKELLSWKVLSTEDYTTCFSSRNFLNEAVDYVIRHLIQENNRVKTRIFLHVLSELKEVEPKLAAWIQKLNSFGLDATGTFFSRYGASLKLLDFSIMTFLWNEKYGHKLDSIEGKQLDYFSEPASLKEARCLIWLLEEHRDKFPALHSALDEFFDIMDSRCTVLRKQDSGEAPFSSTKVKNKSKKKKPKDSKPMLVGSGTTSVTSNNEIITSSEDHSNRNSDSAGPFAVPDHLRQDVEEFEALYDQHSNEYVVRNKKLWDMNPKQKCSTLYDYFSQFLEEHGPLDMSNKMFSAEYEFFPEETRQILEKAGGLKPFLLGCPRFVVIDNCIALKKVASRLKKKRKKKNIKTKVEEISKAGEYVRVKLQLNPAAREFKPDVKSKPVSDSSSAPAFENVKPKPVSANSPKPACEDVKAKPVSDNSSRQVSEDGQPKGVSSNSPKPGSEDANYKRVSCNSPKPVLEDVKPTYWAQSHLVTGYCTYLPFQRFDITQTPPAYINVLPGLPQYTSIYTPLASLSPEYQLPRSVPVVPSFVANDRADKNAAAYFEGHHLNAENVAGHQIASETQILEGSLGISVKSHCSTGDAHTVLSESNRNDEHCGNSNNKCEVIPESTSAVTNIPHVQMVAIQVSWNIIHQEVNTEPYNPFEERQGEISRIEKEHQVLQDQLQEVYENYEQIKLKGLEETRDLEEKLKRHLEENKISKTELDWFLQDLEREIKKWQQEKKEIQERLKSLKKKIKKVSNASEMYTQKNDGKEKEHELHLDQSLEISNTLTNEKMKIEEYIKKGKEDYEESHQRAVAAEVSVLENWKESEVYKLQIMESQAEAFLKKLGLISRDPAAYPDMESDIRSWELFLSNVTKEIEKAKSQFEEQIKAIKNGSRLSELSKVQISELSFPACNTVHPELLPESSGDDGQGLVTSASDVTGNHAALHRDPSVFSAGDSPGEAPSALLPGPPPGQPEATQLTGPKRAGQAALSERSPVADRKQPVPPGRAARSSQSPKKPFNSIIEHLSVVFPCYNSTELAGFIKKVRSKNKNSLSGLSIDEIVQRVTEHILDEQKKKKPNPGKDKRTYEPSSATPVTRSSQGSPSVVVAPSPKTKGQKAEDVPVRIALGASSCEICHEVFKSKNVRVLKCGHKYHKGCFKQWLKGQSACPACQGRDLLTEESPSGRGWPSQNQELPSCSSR
UniProt Q8N4P2: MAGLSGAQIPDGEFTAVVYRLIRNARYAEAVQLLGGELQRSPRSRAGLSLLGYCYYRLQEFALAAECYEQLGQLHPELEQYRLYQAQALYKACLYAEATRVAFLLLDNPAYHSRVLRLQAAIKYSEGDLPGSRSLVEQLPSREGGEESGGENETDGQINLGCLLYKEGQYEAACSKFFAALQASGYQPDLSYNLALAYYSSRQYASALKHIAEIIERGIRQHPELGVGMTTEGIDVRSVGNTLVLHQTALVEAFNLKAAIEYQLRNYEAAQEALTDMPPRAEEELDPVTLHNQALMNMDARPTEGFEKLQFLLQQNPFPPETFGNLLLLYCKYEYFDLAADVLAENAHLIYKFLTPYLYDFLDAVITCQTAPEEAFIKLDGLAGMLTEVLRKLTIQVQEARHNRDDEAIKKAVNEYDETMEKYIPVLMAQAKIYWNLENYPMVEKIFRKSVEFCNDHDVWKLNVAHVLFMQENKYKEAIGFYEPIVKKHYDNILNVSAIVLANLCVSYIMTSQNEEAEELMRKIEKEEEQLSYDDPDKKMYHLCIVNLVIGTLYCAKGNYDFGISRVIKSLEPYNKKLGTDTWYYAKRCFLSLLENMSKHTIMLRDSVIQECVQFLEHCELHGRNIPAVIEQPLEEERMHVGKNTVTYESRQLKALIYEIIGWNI
UniProt Q8TD43: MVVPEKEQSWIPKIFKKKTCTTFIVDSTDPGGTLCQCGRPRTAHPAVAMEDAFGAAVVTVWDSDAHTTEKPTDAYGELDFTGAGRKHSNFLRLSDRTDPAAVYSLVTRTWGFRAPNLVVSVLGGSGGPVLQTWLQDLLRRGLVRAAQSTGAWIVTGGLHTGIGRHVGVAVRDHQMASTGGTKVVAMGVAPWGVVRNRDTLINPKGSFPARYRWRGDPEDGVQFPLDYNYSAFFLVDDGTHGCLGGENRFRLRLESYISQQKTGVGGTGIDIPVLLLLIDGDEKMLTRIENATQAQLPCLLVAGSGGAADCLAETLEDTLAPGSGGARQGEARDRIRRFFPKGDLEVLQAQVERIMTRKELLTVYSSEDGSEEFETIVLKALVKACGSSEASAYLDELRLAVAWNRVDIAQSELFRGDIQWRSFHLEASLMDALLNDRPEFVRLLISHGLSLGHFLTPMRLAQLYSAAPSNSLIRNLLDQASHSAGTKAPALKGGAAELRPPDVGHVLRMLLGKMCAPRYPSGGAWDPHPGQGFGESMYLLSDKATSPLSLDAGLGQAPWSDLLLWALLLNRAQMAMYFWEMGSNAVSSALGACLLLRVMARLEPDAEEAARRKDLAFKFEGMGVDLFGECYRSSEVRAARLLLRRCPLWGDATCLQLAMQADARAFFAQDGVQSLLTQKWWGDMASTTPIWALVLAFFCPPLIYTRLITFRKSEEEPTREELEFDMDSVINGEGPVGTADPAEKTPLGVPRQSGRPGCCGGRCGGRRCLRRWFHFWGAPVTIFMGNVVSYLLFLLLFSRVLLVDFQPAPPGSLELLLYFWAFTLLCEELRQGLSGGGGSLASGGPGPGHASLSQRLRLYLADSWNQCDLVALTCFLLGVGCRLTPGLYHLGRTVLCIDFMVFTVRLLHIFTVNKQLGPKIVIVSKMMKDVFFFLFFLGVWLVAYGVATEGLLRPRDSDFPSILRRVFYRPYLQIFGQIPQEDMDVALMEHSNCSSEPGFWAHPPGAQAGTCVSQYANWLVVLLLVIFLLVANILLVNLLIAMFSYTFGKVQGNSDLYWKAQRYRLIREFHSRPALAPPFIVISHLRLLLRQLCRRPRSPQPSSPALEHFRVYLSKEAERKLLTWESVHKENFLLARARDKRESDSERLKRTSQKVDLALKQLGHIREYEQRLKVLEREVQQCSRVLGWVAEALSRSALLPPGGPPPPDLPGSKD
UniProt Q99576: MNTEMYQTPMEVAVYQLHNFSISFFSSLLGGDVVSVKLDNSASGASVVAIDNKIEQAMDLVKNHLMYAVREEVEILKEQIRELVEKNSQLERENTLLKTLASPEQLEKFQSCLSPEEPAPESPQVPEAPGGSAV

Assays:
Assay in all cases: log2 fold change, soluble protein after heating vs DMSO (PISA); higher = thermal stabilisation; K562 lysate, 10 uM; active = over 0.2 and 3.5 SD of the protein, either way, in both replicates (recomputed)
nilotinib = compound: Cc1cn(-c2cc(NC(=O)c3ccc(C)c(Nc4nccc(-c5cccnc5)n4)c3)cc(C(F)(F)F)c2)cn1 [nilotinib]
Summary of the method: (§1)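 Soluble protein was defined as the supernatant remaining after 21,000xg for 90 min, following pooling of heated aliquots and adjustment to 0.5% NP-40 at 4°C. Before that, crude K562 extract at 1 mg/mL protein in PBS pH 7.4 with 1 mM MgCl2 was treated with 10 μM compound for 30 min and heated for 3 min across 48°C-58°C. Quantification used TMTpro 16plex LC-MS/MS with channel sums equalised, and values are log-two fold changes in thermal stability relative to solvent controls from duplicates.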

[1] = compound: Cc1nc(Nc2n[nH]c3c2CN(C(=O)N[C@H](CN(C)C)c2ccccc2)C3(C)C)c2sccc2n1
Summary of the method: as §1

dasatinib = compound: Cc1nc(Nc2ncc(C(=O)Nc3c(C)cccc3Cl)s2)cc(N2CCN(CCO)CC2)n1 [dasatinib]
Summary of the method: as §1

[2] = compound: Cc1ncc(-c2ccnc(Nc3ccc(S(C)(=O)=O)cc3)n2)n1C(C)C
Summary of the method: as §1

[3] = compound: Cn1cc(-c2ccc3c(c2)CCN3C(=O)Cc2cccc(C(F)(F)F)c2)c2c(N)ncnc21
Summary of the method: as §1

tipifarnib = compound: Cn1cncc1[C@@](N)(c1ccc(Cl)cc1)c1ccc2c(c1)c(-c1cccc(Cl)c1)cc(=O)n2C [tipifarnib]
Summary of the method: as §1

[4] = compound: NC1(c2ccc(-c3nc4ccn5c(=O)[nH]nc5c4cc3-c3ccccc3)cc2)CCC1
Summary of the method: as §1

vorinostat = compound: O=C(CCCCCCC(=O)Nc1ccccc1)NO [vorinostat]
Summary of the method: as §1

silmitasertib = compound: O=C(O)c1ccc2c(c1)nc(Nc1cccc(Cl)c1)c1ccncc12 [silmitasertib]
Summary of the method: as §1

quisinostat = compound: Cn1cc(CNCC2CCN(c3ncc(C(=O)NO)cn3)CC2)c2ccccc21 [quisinostat]
Summary of the method: as §1

[5] = compound: NC(=O)Nc1cc(-c2cccc(F)c2)sc1C(=O)N[C@H]1CCCNC1
Summary of the method: as §1

[6] = compound: NCC(=O)Nc1ccc(-n2nc(C(F)(F)F)cc2-c2ccc3c(ccc4ccccc43)c2)cc1
Summary of the method: as §1

[7] = compound: O=C1NC(=O)C(c2cnc3ccccn23)=C1c1cn2c3c(cc(F)cc13)CN(C(=O)N1CCCCC1)CC2
Summary of the method: as §1

entospletinib = compound: c1cn2cc(-c3ccc4cn[nH]c4c3)nc(Nc3ccc(N4CCOCC4)cc3)c2n1 [entospletinib]
Summary of the method: as §1

Measured: log2 fold change

TTC3 (UniProt P53804)
inactive: nilotinib -0.041 | [1] -0.148 | dasatinib -0.081 | [2] 0.053 | [3] 0.073 | tipifarnib -0.363 | [4] 0.061 | vorinostat -0.257 | silmitasertib -0.074

TTC30B (UniProt Q8N4P2)
inactive: quisinostat 0.064 | [5] 0.139 | [6] 0.074 | [7] 0.109 | entospletinib -0.119

TRPM4 (UniProt Q8TD43)
inactive: dasatinib -0.02 | [3] -0.099 | quisinostat -0.01 | [5] 0.111 | [4] 0.089 | vorinostat 0.161 | silmitasertib -0.091 | [7] -0.078

TSC22D3 isoform 3 (UniProt Q99576)
inactive: quisinostat -0.072 | [5] -0.032 | [4] 0.039 | vorinostat 0.023 | silmitasertib -0.106 | [7] 0.158
